PubChem BioAssay AID1259308 | NCATS – 2017
Shown is an unselected part of about 59,000 reagents tested. About 1,510 of all reagents (2.6%) count as active. 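Calls use total luciferase alone and ignore viability, so some active siRNAs may act by altering cell number.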 A number with no mark means an inactive call. The numbers tell different reagents against one gene apart. Not all columns of the deposit are shown. Reagent sequences are not shown.

Test: 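Candidate targets for better recombinant protein yield in mammalian cells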 (primary screen)
System: human HEK293 embryonic kidney cells stably expressing firefly luciferase (HEK-CMV-Luc2-Hygro)
Reagents: single siRNA against human genes, 0.8 pmol siRNA per well
Time to read-out: 72 h
Measured: 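Reporter luminescence and viable-cell signal on separate replicate plates, given as percent of non-targeting control and median/MAD z-scores, plus per-cell luciferase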
Scale: total luciferase, z-score and total luciferase, % of control: higher = more reporter protein produced; luciferase per cell, z-score: higher = more reporter output per viable cell
Hit rule: 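Active when the median/MAD z-score for overall luciferase is greater than 3; a gene was taken forward for validation with new siRNAs if at least two of its three siRNAs passed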
Meaning of the calls: active = raised luciferase; inactive = no rise

Target gene	reagent no.	total luciferase, z-score	total luciferase, % of control	luciferase per cell, z-score
PCDHB8 (protocadherin beta 8)	1	0.998	102	0.473
PCDHB8 (protocadherin beta 8)	2	-0.488	72.2	-0.947
PCDHB8 (protocadherin beta 8)	3	0.0979	83.8	-0.231
HMGCS1 (3-hydroxy-3-methylglutaryl-CoA synthase 1)	1	-0.134	79.2	-0.863
HMGCS1 (3-hydroxy-3-methylglutaryl-CoA synthase 1)	2	-1.37	54.7	-1.58
HMGCS1 (3-hydroxy-3-methylglutaryl-CoA synthase 1)	3	-1.13	59.5	0.621
EXOSC8 (exosome component 8)	1	1.41	110	1.84
EXOSC8 (exosome component 8)	2	0.633	94.5	0.121
EXOSC8 (exosome component 8)	3	0.00394	82	2.08
NAA20 (N-alpha-acetyltransferase 20, NatB catalytic subunit)	1	1.6	114	0.954
NAA20 (N-alpha-acetyltransferase 20, NatB catalytic subunit)	2	0.221	86.3	-0.285
NAA20 (N-alpha-acetyltransferase 20, NatB catalytic subunit)	3	0.215	86.2	-0.46

2 of these entries in another layout.
{"Target gene": "EXOSC8 (exosome component 8)", "reagent no.": 1, "total luciferase, z-score": 1.41, "total luciferase, % of control": 110, "luciferase per cell, z-score": 1.84}
{"Target gene": "EXOSC8 (exosome component 8)", "reagent no.": 2, "total luciferase, z-score": 0.633, "total luciferase, % of control": 94.5, "luciferase per cell, z-score": 0.121}

Continued:
Target gene	reagent no.	total luciferase, z-score	total luciferase, % of control	luciferase per cell, z-score
RASA1 (RAS p21 protein activator 1)	1	0.534	92.5	-0.143
RASA1 (RAS p21 protein activator 1)	2	-0.222	77.5	-0.303
RASA1 (RAS p21 protein activator 1)	3	1	102	1.88
SUN1 (Sad1 and UNC84 domain containing 1)	1	-0.679	68.4	-1.04
SUN1 (Sad1 and UNC84 domain containing 1)	2	-0.195	78	-0.205
SUN1 (Sad1 and UNC84 domain containing 1)	3	2.07	123	1.92
KNL1 (kinetochore scaffold 1)	1	0.782	97.4	2.13
KNL1 (kinetochore scaffold 1)	2	-0.283	76.2	0.16
KNL1 (kinetochore scaffold 1)	3	0.466	91.2	1.28
RPL32P16 (ribosomal protein L32 pseudogene 16)	1	0.51	92	0.094
RPL32P16 (ribosomal protein L32 pseudogene 16)	2	-0.463	72.7	-0.0287
RPL32P16 (ribosomal protein L32 pseudogene 16)	3	-0.34	75.1	-0.501
